Data: patent publication US20190263932A1
Results are given in words; binding and its absence hold for the method and conditions named. Some entries that bind do so weakly or less than the wild type.

The chains behind the UniProt entries cited, without tags or fusion partners. Where a name states a change or a piece, a line headed by the entry shows the natural chain unless it says otherwise.
UniProt P35739: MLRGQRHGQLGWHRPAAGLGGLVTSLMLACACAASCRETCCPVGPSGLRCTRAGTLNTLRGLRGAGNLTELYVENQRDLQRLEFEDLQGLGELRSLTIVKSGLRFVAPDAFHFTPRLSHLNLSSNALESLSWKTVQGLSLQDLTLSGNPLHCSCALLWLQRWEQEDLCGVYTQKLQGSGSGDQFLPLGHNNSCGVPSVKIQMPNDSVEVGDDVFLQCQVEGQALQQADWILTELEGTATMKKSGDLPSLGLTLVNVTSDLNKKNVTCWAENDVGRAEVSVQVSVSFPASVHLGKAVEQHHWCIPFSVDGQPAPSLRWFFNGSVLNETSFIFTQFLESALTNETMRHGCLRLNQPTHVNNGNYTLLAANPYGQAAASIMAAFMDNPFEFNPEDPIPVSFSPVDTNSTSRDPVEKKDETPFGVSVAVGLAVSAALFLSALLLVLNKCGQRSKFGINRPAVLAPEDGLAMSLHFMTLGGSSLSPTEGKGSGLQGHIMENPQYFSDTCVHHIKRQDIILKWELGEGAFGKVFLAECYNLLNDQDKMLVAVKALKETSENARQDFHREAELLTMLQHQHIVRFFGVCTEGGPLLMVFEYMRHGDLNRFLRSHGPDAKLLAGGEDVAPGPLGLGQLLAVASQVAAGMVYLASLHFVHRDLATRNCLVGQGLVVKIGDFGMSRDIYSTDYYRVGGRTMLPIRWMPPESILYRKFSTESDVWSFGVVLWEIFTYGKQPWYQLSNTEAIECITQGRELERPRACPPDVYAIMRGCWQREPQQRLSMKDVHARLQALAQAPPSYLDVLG
UniProt P04629: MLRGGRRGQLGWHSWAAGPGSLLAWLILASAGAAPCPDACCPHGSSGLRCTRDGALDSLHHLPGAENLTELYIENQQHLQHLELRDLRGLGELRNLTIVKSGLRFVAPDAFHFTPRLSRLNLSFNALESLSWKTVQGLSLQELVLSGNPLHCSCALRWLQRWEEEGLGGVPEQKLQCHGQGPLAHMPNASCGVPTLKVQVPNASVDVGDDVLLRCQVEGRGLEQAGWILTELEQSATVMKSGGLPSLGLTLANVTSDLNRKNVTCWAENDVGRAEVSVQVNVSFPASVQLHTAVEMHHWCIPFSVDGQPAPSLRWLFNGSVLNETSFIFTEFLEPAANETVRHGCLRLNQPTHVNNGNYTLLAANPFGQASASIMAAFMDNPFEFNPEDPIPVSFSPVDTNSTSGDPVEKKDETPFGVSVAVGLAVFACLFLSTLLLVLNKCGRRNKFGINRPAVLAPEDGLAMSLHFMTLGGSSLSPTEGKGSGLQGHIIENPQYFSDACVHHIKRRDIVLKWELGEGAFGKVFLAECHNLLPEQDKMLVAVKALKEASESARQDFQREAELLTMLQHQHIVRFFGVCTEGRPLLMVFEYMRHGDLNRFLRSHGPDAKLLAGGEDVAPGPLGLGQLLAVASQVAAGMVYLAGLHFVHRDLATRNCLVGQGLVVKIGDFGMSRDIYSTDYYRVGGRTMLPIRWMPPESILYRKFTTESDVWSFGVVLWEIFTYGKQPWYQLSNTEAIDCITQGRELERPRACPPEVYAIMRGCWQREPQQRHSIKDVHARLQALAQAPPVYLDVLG
UniProt Q3UFB7: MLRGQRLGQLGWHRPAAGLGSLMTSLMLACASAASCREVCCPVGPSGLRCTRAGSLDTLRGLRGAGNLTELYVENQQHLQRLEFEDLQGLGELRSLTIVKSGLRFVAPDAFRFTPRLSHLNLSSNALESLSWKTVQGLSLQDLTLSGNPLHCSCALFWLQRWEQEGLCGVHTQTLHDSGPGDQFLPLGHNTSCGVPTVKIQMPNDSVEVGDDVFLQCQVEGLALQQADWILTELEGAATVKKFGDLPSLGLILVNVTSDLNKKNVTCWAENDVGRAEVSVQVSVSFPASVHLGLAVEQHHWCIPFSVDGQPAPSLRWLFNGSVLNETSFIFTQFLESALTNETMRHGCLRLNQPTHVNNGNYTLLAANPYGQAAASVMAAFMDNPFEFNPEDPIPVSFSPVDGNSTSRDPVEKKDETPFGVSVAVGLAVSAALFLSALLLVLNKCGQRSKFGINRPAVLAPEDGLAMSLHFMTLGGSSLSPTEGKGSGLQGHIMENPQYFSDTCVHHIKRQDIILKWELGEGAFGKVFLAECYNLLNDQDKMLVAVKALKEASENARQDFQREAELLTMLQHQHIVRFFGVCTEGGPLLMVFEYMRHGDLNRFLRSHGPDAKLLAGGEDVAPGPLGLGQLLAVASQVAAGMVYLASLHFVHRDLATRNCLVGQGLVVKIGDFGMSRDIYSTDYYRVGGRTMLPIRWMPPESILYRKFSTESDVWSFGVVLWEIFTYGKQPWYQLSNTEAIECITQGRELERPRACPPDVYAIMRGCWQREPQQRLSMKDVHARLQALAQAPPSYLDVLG

What was measured:
Assay in all cases: SPR, mAb captured on Protein A chip, 37 C
[1] = target: Rat TrkA Extracellular Domain (33-411) (rat) (UniProt P35739)
[2] = target: Human TrkA Extracellular Domain Isoform 2 (33-408) (human) (UniProt P04629)
[3] = target: Human TrkA Extracellular Domain Isoform 1 (33-414) (human) (UniProt P04629)
[4] = target: Cynomolgus monkey TrkA Extracellular Domain (59-434) (cynomolgus monkey)
[5] = target: Mouse TrkA Extracellular Domain (33-417 with 396-401 deletion) (mouse) (UniProt Q3UFB7)
[6] = target: Rabbit TrkA Extracellular Domain (33-414) (rabbit)

Measured: binding

B1: mAb A (antibody, human IgG4 S228P, kappa, F234A L235A, V domains shown)
VH: EVQLVESGGGLVKPGGSLRLSCAASGFTFSGVSINWVRQAPGKGLEWVSSETTSSGTIYYADSVKGRFTISRDNAKNSLYLQMNSLRAEDTAVYYCARSYYYGMDVWGQGTTVTVSS
VL: DIVMTQTPLSSPVTLGQPASISCRSSQSLVHRNGNTYLSWLQQRPGQPPRLLIYKISNRFSGVPDRFSGSGAGTDFTLKISRVEAEDVGVYYCMQARQFPLTFGGGTKVEIKR
binds: [1] | [2] | [3] | [4] | [5] | [6]
